Results as given in article PMC4446442.
These are yes or no findings as the source states them, for the method shown. Some results given as binding are weak or reduced against the parent protein; the word gives no strength.

Amino acid sequences for entries named in this document (tags omitted).
UniProt P16370: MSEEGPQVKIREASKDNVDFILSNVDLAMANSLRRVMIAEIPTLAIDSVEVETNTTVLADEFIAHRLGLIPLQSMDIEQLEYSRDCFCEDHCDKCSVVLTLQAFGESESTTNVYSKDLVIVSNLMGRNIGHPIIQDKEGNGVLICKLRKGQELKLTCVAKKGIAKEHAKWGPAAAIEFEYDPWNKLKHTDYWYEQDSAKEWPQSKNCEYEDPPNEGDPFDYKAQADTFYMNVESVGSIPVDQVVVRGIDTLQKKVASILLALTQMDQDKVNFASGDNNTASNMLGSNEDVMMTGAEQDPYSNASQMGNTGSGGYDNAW
UniProt P08518: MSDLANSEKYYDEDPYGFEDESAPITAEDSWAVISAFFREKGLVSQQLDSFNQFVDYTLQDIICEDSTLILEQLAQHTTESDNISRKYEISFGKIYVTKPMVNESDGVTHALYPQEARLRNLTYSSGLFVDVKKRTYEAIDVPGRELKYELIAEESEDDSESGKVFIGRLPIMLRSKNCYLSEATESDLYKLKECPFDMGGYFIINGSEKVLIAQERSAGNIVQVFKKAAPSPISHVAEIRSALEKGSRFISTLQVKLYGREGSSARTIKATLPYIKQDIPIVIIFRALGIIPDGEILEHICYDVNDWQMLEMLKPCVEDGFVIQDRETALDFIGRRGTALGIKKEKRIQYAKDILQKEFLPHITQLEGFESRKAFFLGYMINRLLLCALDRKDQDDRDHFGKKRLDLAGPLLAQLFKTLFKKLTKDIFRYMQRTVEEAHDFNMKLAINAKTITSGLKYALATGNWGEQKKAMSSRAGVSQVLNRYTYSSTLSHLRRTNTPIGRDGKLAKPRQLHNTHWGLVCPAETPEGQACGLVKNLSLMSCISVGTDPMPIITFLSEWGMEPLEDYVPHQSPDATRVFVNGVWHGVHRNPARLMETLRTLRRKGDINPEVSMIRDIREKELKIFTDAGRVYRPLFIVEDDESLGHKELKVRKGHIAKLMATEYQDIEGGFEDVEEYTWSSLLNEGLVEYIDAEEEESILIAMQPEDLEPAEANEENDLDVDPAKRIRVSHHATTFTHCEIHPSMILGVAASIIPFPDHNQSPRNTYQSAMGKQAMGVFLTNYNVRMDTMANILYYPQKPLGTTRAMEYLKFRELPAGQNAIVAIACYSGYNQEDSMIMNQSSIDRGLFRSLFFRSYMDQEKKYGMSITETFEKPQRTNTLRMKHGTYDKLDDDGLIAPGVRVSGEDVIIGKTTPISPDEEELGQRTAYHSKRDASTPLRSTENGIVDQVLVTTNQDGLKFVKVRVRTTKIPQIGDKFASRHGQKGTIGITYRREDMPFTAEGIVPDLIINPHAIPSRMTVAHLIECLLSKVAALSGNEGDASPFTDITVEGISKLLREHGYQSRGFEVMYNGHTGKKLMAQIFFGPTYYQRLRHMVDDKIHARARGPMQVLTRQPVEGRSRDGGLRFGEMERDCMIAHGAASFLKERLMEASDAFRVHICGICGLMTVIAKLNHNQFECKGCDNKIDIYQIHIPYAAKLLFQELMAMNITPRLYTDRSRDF

Biological target: Rpb3-TAP (yeast) (UniProt P16370)
Assay: tandem affinity purification (TAP) with silver staining; Pol II complexes purified from yeast YYW122 through Rpb3-TAP; silver-stained gel

binding: binds
Substance: Rpb2 (from UniProt P08518 1-1224)
